Assay results published in US10500274B2, “Methods for reducing viral load in HIV-1 infected patients” (CytoDyn Inc., priority 2008, dated 2019).
At least one compound was matched to its structure with a doubt left.

Tests used:
[1] = tested on: HIV-1JR-FL envelope-mediated membrane fusion; format: cell-based
[2] = tested on: reporter viruses pseudotyped with HIV-1JR-FL envelope (U87-CD4-CCR5 cells); format: cell-based; details: in combination with PRO 140; both HIV-1JR-FL and HIV-1SF162 pseudoviruses, 50% and 90% inhibition
HIV-1 = details: dose-dependent, treatment period of 10-14 days; cited from earlier work

Row | Structure (SMILES) | CI values (50% and 90% inhibition) ([1]; in combination with PRO 140) | CI values [2] | mean reduction in HIV-1 RNA levels (HIV-1) | CI50 ([1]; labelled 1st inhibitor with 2nd inhibitor PRO 140, equimolar)
1 | Cc1nnc(C(C)C)n1C1CC2CCC(C1)N2CC[C@H](NC(=O)C1CCC(F)(F)CC1)c1ccccc1 (stereo partly shown) [UK-427,857] | Potent synergy | potently synergized | ~1 log10 | 
2 | COc1ccnc2[nH]cc(C(=O)C(=O)N3CCN(C(=O)c4ccccc4)C[C@H]3C)c12 [BMS-378806, (R)—N-(benzoyl)-3-methyl-N′-[(4-methoxy-7-azaindol-3-yl)-oxoacetyl]-piperazine] |  |  |  | modest antagonism
